Measured values reported in the supplement of paper PMC12823440, “Inhibitors supercharge kinase turnover through native proteolytic circuits” (Nature, 2025).
Structures can show the parent of a compound that is named as a salt. This is one part of the list. The calls rarely recur for the same compound in another form.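 Kinases were expressed as nanoluciferase fusions in K562 cells and luminescence was read every 4 h between 2 and 18 h as percent of control, DMSO set to 100% and a positive control to 0%. A time point counts as decreased when the signal drops significantly (2 sigma). The hit call is the authors' own, does not follow from the count of time points alone, and its rule is not shown.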

By UniProt entry, the sequences of proteins in these tests, tags left out. Where a name states a change or a piece, a line headed by the entry shows the natural chain unless it says otherwise.
UniProt P29317, whole entry: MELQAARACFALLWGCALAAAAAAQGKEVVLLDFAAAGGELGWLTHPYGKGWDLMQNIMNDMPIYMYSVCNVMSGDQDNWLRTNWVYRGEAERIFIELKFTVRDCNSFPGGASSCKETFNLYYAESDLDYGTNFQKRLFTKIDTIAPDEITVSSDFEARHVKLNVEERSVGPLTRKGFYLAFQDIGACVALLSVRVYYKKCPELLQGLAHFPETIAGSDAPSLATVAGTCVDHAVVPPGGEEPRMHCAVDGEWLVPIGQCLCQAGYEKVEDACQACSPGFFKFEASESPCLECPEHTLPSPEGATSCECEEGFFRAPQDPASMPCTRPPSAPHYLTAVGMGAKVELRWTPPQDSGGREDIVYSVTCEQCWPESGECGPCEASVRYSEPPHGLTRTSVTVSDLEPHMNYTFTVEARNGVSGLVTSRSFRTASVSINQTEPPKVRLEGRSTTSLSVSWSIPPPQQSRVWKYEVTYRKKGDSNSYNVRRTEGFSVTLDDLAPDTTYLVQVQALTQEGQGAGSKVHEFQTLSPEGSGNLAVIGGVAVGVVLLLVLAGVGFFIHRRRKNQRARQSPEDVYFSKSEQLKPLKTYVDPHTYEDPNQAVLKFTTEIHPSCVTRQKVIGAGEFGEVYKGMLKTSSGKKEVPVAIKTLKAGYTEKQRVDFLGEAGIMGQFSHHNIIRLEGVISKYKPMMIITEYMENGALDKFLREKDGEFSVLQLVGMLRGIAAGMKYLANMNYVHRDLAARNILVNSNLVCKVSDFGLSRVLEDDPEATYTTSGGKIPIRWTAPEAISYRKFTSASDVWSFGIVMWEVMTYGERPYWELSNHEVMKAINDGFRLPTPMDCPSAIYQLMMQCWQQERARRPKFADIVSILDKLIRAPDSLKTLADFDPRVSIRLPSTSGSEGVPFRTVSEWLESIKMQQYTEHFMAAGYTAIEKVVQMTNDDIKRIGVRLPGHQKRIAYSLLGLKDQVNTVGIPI
UniProt P21860, whole entry: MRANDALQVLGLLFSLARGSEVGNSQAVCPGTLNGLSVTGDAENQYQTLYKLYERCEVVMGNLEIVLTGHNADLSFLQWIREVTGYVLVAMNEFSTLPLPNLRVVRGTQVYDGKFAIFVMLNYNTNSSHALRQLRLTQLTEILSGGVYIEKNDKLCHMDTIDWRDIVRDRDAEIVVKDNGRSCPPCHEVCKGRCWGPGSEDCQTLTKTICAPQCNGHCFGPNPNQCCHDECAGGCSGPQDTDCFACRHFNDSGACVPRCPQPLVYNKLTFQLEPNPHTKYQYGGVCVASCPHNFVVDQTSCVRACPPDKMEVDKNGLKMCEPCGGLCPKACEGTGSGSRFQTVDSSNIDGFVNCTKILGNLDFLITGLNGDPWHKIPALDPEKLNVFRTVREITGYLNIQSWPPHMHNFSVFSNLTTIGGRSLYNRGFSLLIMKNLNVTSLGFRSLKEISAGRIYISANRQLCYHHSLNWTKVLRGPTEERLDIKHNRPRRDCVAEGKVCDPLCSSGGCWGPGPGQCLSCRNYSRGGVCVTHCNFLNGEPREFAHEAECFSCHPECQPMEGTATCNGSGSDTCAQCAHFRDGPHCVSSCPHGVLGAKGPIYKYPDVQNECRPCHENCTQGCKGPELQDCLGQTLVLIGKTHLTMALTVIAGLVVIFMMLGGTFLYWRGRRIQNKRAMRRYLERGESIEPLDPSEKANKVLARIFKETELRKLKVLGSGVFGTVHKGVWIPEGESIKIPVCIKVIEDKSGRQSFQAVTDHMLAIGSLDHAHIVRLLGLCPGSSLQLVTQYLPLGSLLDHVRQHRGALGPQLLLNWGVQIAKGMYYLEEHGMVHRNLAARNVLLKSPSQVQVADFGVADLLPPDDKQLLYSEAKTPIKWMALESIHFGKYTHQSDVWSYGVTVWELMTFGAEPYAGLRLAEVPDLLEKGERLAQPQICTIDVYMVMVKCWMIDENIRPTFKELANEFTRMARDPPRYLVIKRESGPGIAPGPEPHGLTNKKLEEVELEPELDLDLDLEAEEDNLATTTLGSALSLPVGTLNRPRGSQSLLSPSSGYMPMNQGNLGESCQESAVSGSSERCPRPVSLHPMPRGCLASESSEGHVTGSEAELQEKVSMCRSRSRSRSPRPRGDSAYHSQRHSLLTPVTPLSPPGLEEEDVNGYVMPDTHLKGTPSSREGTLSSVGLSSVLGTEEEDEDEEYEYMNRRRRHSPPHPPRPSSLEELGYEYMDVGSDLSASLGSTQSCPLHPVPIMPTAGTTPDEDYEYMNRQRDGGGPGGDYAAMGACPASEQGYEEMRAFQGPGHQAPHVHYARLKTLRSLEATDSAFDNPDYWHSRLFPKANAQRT
UniProt Q15303, whole entry R711C: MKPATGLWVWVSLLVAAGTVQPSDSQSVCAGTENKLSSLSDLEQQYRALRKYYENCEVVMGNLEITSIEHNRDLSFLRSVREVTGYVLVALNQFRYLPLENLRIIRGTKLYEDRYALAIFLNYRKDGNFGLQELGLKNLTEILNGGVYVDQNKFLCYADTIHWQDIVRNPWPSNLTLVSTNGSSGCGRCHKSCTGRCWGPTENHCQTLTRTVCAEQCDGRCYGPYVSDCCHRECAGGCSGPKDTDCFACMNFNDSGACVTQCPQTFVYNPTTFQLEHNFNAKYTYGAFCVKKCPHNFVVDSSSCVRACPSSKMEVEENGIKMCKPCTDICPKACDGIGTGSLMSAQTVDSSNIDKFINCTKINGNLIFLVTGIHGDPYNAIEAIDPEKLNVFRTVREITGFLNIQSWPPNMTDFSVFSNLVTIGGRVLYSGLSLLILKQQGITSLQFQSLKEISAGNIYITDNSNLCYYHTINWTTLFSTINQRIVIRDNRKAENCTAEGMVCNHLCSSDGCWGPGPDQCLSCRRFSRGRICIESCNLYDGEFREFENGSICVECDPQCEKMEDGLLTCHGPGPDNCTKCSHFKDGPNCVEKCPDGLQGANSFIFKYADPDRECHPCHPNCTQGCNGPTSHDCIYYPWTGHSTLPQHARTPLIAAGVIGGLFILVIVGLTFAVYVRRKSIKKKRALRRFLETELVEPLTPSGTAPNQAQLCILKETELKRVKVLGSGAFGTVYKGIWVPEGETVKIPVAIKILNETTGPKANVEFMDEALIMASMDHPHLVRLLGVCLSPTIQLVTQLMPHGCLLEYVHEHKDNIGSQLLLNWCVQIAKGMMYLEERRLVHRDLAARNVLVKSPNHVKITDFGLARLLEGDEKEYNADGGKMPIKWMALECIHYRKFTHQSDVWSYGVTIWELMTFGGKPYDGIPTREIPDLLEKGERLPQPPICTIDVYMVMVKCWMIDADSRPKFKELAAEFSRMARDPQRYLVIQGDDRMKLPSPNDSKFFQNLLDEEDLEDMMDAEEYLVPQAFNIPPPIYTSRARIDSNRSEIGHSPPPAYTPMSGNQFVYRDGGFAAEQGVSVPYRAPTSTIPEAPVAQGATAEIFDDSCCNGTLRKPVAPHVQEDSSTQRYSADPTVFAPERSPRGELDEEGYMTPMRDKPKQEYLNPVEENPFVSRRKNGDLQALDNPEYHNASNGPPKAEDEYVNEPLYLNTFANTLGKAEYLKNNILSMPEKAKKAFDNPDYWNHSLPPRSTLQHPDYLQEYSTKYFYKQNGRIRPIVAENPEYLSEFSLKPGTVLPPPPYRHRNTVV
UniProt O75460: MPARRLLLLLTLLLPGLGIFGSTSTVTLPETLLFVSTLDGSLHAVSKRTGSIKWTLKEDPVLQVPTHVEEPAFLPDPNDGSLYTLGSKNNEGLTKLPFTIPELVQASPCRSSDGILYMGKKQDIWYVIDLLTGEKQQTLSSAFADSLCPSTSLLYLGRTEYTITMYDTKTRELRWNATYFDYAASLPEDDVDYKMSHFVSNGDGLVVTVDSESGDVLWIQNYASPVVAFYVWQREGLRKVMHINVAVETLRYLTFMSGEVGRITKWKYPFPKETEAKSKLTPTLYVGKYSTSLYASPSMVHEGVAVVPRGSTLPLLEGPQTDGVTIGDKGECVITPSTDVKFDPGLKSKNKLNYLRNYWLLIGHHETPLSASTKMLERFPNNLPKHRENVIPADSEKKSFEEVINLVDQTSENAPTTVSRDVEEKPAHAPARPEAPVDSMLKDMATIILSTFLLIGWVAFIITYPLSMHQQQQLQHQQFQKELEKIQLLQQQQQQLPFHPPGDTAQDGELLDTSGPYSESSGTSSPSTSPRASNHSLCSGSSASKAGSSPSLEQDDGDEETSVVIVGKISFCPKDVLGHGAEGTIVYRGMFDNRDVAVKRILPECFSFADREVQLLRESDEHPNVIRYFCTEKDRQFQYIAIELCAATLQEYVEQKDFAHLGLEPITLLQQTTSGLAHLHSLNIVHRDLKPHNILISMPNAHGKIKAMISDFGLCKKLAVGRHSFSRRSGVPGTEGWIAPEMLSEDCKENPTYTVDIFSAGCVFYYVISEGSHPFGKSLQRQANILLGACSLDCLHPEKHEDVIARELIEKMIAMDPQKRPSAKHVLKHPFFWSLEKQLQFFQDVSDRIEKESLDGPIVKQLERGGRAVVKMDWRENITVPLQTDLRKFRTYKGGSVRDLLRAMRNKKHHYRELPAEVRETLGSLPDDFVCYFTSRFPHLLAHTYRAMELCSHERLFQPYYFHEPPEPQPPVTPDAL
UniProt P11362, whole entry, looked up: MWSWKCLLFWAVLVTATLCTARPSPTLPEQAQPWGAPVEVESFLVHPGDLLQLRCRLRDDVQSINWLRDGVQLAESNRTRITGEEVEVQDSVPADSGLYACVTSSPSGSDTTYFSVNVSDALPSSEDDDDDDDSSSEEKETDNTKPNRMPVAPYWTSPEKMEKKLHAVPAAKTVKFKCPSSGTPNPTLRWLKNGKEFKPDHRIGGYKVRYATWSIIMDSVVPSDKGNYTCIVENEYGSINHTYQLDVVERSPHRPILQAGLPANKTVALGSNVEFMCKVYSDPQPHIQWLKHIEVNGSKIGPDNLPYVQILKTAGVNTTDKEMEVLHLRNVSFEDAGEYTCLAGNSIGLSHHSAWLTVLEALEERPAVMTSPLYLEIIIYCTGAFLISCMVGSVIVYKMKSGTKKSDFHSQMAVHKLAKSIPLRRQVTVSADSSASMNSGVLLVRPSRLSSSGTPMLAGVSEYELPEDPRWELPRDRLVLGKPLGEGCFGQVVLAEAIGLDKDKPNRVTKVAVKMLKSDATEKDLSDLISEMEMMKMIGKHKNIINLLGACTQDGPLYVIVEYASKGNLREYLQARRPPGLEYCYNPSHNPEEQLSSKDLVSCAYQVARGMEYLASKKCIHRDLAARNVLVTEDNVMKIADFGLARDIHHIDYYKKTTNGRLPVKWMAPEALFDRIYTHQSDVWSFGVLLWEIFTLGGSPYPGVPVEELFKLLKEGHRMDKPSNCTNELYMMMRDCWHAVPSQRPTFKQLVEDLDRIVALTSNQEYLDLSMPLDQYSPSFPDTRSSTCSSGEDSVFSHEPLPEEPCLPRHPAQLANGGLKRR
UniProt P22607, whole entry, looked up: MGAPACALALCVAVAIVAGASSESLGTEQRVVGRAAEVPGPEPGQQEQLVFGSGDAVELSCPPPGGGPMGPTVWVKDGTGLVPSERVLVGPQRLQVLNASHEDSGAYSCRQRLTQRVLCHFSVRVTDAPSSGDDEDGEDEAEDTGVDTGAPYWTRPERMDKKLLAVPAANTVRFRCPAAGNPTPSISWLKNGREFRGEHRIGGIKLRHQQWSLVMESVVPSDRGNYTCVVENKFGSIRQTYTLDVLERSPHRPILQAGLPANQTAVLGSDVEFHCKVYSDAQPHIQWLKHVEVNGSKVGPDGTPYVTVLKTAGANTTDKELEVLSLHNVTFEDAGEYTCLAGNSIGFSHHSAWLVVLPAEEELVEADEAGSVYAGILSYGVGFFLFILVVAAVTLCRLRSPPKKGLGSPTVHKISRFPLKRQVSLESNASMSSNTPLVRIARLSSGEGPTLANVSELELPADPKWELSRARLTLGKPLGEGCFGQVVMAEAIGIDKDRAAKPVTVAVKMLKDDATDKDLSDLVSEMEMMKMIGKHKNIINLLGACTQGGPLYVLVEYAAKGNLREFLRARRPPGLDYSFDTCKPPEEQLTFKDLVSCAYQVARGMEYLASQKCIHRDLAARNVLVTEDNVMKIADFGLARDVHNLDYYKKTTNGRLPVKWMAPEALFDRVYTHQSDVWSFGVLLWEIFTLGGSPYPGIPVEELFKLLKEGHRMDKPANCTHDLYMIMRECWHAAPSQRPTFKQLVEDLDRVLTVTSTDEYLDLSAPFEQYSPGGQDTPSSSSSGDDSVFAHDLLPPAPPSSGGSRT

Assays:
Test in all cases: number of time points (of 5) at which kinase-Nluc abundance scored as decreased, DMSO-normalised (count); higher = more persistent destabilization
Settings in all cases: K562; 2-18 h
EGFR_L861Q = EGFR_L861Q (UniProt P00533)
EGFR_T790M = EGFR_T790M (UniProt P00533)
EPHA2 = EPHA2 (UniProt P29317)
ERBB3 = ERBB3 (UniProt P21860)
[1] = target: ERBB4_R711C (clone: ERBB4_mut) (UniProt Q15303)
ERN1 = ERN1 (UniProt O75460)
FGFR1 = FGFR1 (UniProt P11362)
FGFR2 = FGFR2 (UniProt P21802)
FGFR3 = FGFR3 (UniProt P22607)
FGR = FGR (UniProt P09769)

Cc1ccc(-c2nn(C(C)(C)CNC(=O)c3ccncc3)c3ncnc(N)c23)cc1 (2.5 µM)
number of time points (EGFR_L861Q): 0
number of time points (EGFR_T790M): 0
number of time points (EPHA2): 0
number of time points (ERBB3): 0
number of time points [1]: 0
number of time points (ERN1): 0
number of time points (FGFR1): 0
number of time points (FGFR2): 0
number of time points (FGFR3): 0
number of time points (FGR): 0

CC(C)(C)c1cc(C(c2cc3c(cc2O)OCO3)N2CCOCC2)cc(C(C)(C)C)c1O (stereo not given) (2.5 µM)
number of time points (EGFR_L861Q): 0
number of time points (EGFR_T790M): 0
number of time points (EPHA2): 0
number of time points (ERBB3): 0
number of time points [1]: 0
number of time points (ERN1): 0
number of time points (FGFR1): 0
number of time points (FGFR2): 0
number of time points (FGFR3): 0
number of time points (FGR): 0

O=C1NC(=O)/C(=C/c2ccc(-c3ccc(F)cc3O)o2)S1 (10 µM)
number of time points (EGFR_L861Q): 0
number of time points (EGFR_T790M): 0
number of time points (EPHA2): 0
number of time points (ERBB3): 0
number of time points [1]: 0
number of time points (ERN1): 0
number of time points (FGFR1): 0
number of time points (FGFR2): 0
number of time points (FGFR3): 0
number of time points (FGR): 0

O=C(Nc1ccc(Cl)cc1)C1CCCN(C(=O)c2cccc(-c3ccco3)c2)C1 (stereo not given) (2.5 µM)
number of time points (EGFR_L861Q): 0
number of time points (EGFR_T790M): 0
number of time points (EPHA2): 0
number of time points (ERBB3): 0
number of time points [1]: 0
number of time points (ERN1): 0
number of time points (FGFR1): 0
number of time points (FGFR2): 0
number of time points (FGFR3): 0
number of time points (FGR): 0

CCCC(=O)Nc1nc2c(ncn2[C@@H]2O[C@@H]3COP(=O)(O)O[C@H]3[C@H]2OC(=O)CCC)c(=O)[nH]1 [Dibutyryl-cGMP (sodium)] (10 µM)
number of time points (EGFR_L861Q): 0
number of time points (EGFR_T790M): 0
number of time points (EPHA2): 0
number of time points (ERBB3): 0
number of time points [1]: 0
number of time points (ERN1): 0
number of time points (FGFR1): 0
number of time points (FGFR2): 0
number of time points (FGFR3): 0
number of time points (FGR): 0

CC[C@@H]1C(=O)N(C)c2cnc(Nc3ccc(C(=O)N[C@H]4CC[C@H](N5CCN(CC6CC6)CC5)CC4)cc3OC)nc2N1C(C)C [Volasertib] (2.5 µM)
number of time points (EGFR_L861Q): 1
number of time points (EGFR_T790M): 0
number of time points (EPHA2): 0
number of time points (ERBB3): 0
number of time points [1]: 1
number of time points (ERN1): 0
number of time points (FGFR1): 0
number of time points (FGFR2): 0
number of time points (FGFR3): 0
number of time points (FGR): 0

CC(C)Oc1ccc(-c2cnc3c(-c4ccnc5ccccc45)cnn3c2)cc1 (10 µM)
number of time points (EGFR_L861Q): 0
number of time points (EGFR_T790M): 0
number of time points (EPHA2): 0
number of time points (ERBB3): 0
number of time points [1]: 0
number of time points (ERN1): 0
number of time points (FGFR1): 0
number of time points (FGFR2): 0
number of time points (FGFR3): 0
number of time points (FGR): 0

O=c1ccoc2cc(O)ccc12 [7-Hydroxy-4H-chromen-4-one] (10 µM)
number of time points (EGFR_L861Q): 0
number of time points (EGFR_T790M): 0
number of time points (EPHA2): 0
number of time points (ERBB3): 0
number of time points [1]: 0
number of time points (ERN1): 0
number of time points (FGFR1): 0
number of time points (FGFR2): 0
number of time points (FGFR3): 0
number of time points (FGR): 0

C[C@@H]1C[C@H]2O[C@@]3(O[C@@H]2C(C)(C)O)[C@H](O)[C@@]2(C)[C@@H]4CC[C@H]5C(C)(C)[C@@H](O[C@@H]6OC[C@H](O)[C@H](O)[C@H]6O)CC[C@@]56C[C@@]46CC[C@]2(C)[C@@H]13 [Cimiracemoside C] (10 µM)
number of time points (EGFR_L861Q): 0
number of time points (EGFR_T790M): 0
number of time points (EPHA2): 0
number of time points (ERBB3): 0
number of time points [1]: 0
number of time points (ERN1): 0
number of time points (FGFR1): 0
number of time points (FGFR2): 0
number of time points (FGFR3): 0
number of time points (FGR): 0

CCc1cccc(CC)c1NC(=O)c1nn(C)c2c1CCc1cnc(Nc3ccc(C(=O)NC4CCN(C)CC4)cc3OC(F)(F)F)nc1-2 (2 µM)
number of time points (EGFR_L861Q): 0
number of time points (EGFR_T790M): 0
number of time points (EPHA2): 0
number of time points (ERBB3): 0
number of time points [1]: 0
number of time points (ERN1): 0
number of time points (FGFR1): 0
number of time points (FGFR2): 0
number of time points (FGFR3): 0
number of time points (FGR): 0

O=C(c1ccc(Nc2nccc(-c3cc4ccccc4s3)n2)cc1)N1CCC(N2CCCC2)CC1 (2.5 µM)
number of time points (EGFR_L861Q): 0
number of time points (EGFR_T790M): 0
number of time points (EPHA2): 0
number of time points (ERBB3): 0
number of time points [1]: 0
number of time points (ERN1): 0
number of time points (FGFR1): 0
number of time points (FGFR2): 0
number of time points (FGFR3): 0
number of time points (FGR): 0

CN(C)Cc1cccc(N=C(c2ccccc2)c2c(O)[nH]c3cc(C(=O)N(C)C)ccc23)c1 (10 µM)
number of time points (EGFR_L861Q): 0
number of time points (EGFR_T790M): 0
number of time points (EPHA2): 0
number of time points (ERBB3): 0
number of time points [1]: 0
number of time points (ERN1): 0
number of time points (FGFR1): 0
number of time points (FGFR2): 0
number of time points (FGFR3): 0
number of time points (FGR): 0

CN(C)c1ncnc2nc[nH]c12 [6-(Dimethylamino)purine] (10 µM)
number of time points (EGFR_L861Q): 0
number of time points (EGFR_T790M): 0
number of time points (EPHA2): 0
number of time points (ERBB3): 0
number of time points [1]: 0
number of time points (ERN1): 0
number of time points (FGFR1): 0
number of time points (FGFR2): 0
number of time points (FGFR3): 0
number of time points (FGR): 0

COc1nc(-c2ccnc(NC(=O)C3CC3)c2)sc1C(N)=O [GSK-3β inhibitor 2] (10 µM)
number of time points (EGFR_L861Q): 0
number of time points (EGFR_T790M): 0
number of time points (EPHA2): 0
number of time points (ERBB3): 0
number of time points [1]: 4
number of time points (ERN1): 0
number of time points (FGFR1): 0
number of time points (FGFR2): 0
number of time points (FGFR3): 0
number of time points (FGR): 0

N#Cc1ccc(-c2c(-c3ncn[nH]3)sc(N3CCOCC3)c2C#N)c(F)c1 (10 µM)
number of time points (EGFR_L861Q): 0
number of time points (EGFR_T790M): 0
number of time points (EPHA2): 0
number of time points (ERBB3): 0
number of time points [1]: 0
number of time points (ERN1): 0
number of time points (FGFR1): 0
number of time points (FGFR2): 0
number of time points (FGFR3): 0
number of time points (FGR): 0

C=CC(=O)Nc1cccc(-n2c(=O)cc(C)c3cnc(Nc4ccc(OCCN(C)C)cc4OC)nc32)c1 (10 µM)
number of time points (EGFR_L861Q): 0
number of time points (EGFR_T790M): 0
number of time points (EPHA2): 0
number of time points (ERBB3): 0
number of time points [1]: 1
number of time points (ERN1): 0
number of time points (FGFR1): 0
number of time points (FGFR2): 0
number of time points (FGFR3): 0
number of time points (FGR): 0

C[C@@H]1COCCN1c1cc(C2([S@](C)(=N)=O)CC2)nc(-c2cc[nH]c3nccc2-3)n1 [Ceralasertib] (2.5 µM)
number of time points (EGFR_L861Q): 0
number of time points (EGFR_T790M): 0
number of time points (EPHA2): 0
number of time points (ERBB3): 0
number of time points [1]: 0
number of time points (ERN1): 0
number of time points (FGFR1): 0
number of time points (FGFR2): 0
number of time points (FGFR3): 0
number of time points (FGR): 0

CC(CCc1ccccn1)(CCc1ccccn1)C(=O)c1ccccc1 (10 µM)
number of time points (EGFR_L861Q): 0
number of time points (EGFR_T790M): 0
number of time points (EPHA2): 0
number of time points (ERBB3): 0
number of time points [1]: 0
number of time points (ERN1): 0
number of time points (FGFR1): 0
number of time points (FGFR2): 0
number of time points (FGFR3): 0
number of time points (FGR): 0

CC(C)C[C@H](NC(=O)[C@H](CCCCN)NC(=O)[C@H](CO)NC(=O)[C@@H](N)CC(C)C)C(N)=O [LSKL, Inhibitor of Thrombospondin (TSP-1) (TFA)] (10 µM)
number of time points (EGFR_L861Q): 0
number of time points (EGFR_T790M): 0
number of time points (EPHA2): 0
number of time points (ERBB3): 0
number of time points [1]: 0
number of time points (ERN1): 0
number of time points (FGFR1): 0
number of time points (FGFR2): 0
number of time points (FGFR3): 0
number of time points (FGR): 0

O=C(O)c1cc(O)c2c(c1)[C@@H]([C@H]1c3cc(C(=O)O)cc(O)c3C(=O)c3c(O[C@@H]4O[C@H](CO)[C@@H](O)[C@H](O)[C@H]4O)cccc31)c1cccc(O[C@@H]3O[C@H](CO)[C@@H](O)[C@H](O)[C@H]3O)c1C2=O [Sennoside B] (2.5 µM)
number of time points (EGFR_L861Q): 0
number of time points (EGFR_T790M): 0
number of time points (EPHA2): 0
number of time points (ERBB3): 0
number of time points [1]: 0
number of time points (ERN1): 0
number of time points (FGFR1): 0
number of time points (FGFR2): 0
number of time points (FGFR3): 0
number of time points (FGR): 0

Cn1cc(-c2cc3c(N4CCN(c5ncc([C@@](C)(N)c6ccc(F)cc6)cn5)CC4)ncnn3c2)cn1 [Avapritinib] (2.5 µM)
number of time points (EGFR_L861Q): 0
number of time points (EGFR_T790M): 0
number of time points (EPHA2): 0
number of time points (ERBB3): 0
number of time points [1]: 0
number of time points (ERN1): 0
number of time points (FGFR1): 0
number of time points (FGFR2): 0
number of time points (FGFR3): 0
number of time points (FGR): 0

CCOc1ccccc1C=C1C(=O)Nc2ccccc21 (10 µM)
number of time points (EGFR_L861Q): 0
number of time points (EGFR_T790M): 0
number of time points (EPHA2): 0
number of time points (ERBB3): 0
number of time points [1]: 2
number of time points (ERN1): 0
number of time points (FGFR1): 0
number of time points (FGFR2): 1
number of time points (FGFR3): 0
number of time points (FGR): 0
